The values that follow come from publication PMC3902902.

The target of experiment [1] is T1, AtCBP80 fused with the N-terminal fragment of EYFP for BiFC (A. thaliana) (UniProt Q9SIU2).
T1 sequence: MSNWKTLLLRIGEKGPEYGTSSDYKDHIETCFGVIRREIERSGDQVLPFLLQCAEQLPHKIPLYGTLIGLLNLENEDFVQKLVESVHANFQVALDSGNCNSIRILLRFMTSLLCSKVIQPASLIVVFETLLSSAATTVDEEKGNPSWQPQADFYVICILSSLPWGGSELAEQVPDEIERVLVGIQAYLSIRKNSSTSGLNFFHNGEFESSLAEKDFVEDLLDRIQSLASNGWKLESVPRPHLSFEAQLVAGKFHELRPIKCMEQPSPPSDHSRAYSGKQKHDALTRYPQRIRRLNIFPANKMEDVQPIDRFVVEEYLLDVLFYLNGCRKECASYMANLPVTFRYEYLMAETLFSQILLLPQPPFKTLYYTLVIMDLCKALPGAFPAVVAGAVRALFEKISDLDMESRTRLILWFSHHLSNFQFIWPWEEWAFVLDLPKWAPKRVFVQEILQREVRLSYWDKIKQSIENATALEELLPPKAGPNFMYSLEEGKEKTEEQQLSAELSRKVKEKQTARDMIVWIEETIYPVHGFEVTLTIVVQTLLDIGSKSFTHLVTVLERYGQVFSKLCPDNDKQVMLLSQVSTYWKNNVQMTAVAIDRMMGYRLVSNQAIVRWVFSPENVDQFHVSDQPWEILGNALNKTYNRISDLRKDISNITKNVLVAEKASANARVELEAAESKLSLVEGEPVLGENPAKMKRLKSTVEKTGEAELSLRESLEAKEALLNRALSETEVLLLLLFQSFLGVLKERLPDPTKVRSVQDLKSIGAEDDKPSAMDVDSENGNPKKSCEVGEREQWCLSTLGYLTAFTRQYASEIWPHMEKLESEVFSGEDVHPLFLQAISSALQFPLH
As to the kind of experiment: split reporter; BiFC with complementary EYFP fragments; A. thaliana protoplasts (T87 suspension cells or rosette leaves) co-transfected; fluorescence analysed 20-35 h after transfection.

For experiment [2], the target named is T2, AtSE (SERRATE) fused to a non-fluorescent fragment of EYFP for BiFC (A. thaliana) (UniProt Q9ZVD0).
T2 sequence: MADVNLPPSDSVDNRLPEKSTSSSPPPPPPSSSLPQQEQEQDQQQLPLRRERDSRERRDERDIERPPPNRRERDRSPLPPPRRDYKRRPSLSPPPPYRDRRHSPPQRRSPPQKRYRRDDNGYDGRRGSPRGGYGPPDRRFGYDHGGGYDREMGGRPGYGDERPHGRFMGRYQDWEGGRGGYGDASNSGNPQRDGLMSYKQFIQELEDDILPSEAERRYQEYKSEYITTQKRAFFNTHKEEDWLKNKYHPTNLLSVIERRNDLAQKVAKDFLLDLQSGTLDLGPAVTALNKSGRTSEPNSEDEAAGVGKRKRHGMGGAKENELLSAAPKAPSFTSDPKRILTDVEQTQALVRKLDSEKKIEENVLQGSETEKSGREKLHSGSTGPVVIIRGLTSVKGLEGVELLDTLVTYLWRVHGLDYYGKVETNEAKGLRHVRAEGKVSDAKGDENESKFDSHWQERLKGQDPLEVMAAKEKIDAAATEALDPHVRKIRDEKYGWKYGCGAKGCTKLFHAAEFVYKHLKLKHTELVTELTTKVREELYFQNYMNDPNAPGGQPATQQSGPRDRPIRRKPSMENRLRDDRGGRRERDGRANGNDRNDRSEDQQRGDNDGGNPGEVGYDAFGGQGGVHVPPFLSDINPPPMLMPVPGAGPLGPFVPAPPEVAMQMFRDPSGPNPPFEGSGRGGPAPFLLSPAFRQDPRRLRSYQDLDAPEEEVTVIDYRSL
The description is as above.

Experiment [3] deals with T3, MBP-AtSE core (core fragment of SERRATE, residues 194-543, fused with maltose binding protein) (A. thaliana) (UniProt Q9ZVD0).
T3 sequence: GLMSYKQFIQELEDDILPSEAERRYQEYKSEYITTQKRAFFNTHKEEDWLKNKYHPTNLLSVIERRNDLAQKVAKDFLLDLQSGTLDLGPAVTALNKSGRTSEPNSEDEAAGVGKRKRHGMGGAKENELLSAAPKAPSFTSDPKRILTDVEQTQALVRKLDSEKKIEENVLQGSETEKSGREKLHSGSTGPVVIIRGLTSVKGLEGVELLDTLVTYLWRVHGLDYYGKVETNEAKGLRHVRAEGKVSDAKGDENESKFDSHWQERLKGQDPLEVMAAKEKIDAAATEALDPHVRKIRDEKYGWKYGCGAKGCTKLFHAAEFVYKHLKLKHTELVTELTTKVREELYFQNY
Nature of the experiment: pull-down; MBP fusions from E. coli bound to amylose resin; incubated with [35S]-methionine-labelled in vitro translated proteins (AtCBP20 and AtCBP80 separately or together) in phosphate buffer (28 mM NaH2PO4, 72 mM Na2HPO4, 250 mM KCl, 0.5% Triton X-100) for 2 h at 4°C; eluted with 10 mM maltose; SDS-PAGE and image analyzer; only the target purified.

In experiment [4] the target is T4, MBP-AtSE FL (full-length SERRATE fused with maltose binding protein) (A. thaliana) (UniProt Q9ZVD0).
T4 sequence: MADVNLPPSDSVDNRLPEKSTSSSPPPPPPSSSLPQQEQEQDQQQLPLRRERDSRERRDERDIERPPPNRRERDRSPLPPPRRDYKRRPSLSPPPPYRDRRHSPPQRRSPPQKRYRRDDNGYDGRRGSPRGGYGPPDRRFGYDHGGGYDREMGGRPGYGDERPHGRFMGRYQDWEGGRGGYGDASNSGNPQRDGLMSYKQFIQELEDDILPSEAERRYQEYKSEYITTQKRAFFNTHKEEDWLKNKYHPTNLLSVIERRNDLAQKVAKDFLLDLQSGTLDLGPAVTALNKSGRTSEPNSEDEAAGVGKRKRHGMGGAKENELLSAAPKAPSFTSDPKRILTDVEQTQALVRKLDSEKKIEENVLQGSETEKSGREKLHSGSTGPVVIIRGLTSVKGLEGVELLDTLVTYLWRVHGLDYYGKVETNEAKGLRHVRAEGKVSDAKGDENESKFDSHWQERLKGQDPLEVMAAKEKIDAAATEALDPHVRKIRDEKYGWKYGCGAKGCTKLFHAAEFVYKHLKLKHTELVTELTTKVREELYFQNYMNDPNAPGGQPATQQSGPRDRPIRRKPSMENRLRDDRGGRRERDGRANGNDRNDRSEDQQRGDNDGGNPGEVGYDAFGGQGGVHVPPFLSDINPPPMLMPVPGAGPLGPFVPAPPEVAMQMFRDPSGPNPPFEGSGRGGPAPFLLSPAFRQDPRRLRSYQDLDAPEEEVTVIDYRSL
The experiment is described as above.

Results are given in words; binding and its absence hold for the method and conditions named. Binding seen in cells or lysates may run through a third protein. Some entries that bind do so weakly or less than the wild type. Sequences can lack the tags named with a protein.

B1: AtCBP20 fused to a non-fluorescent fragment of EYFP for BiFC (protein, UniProt Q9XFD1 1-257)
chain: MASLFKEQAKLSAYRDRRFSGTQEEFDEALRASTTVYIGNVSFYTTEEQLYELFSRAGEIKKIIMGLDKNTKTPCGFCFVLFYSREDTEDAVKYISGTILDDRPIRVDFDWGFQEGRQWGRGRSGGQVRDEYRTDYDPARGGYGKLVQKELEAQRQLVDYGTGSLGAYPQAAPTNYGNGRRGGGNYGQGGQNRHGRGDYHRKRQRDDDRYGRDNSRRNTDHESRRDTDSDMRPEKNPRFRESGDSDDDGEDDRKRRS
Consider B1, for which the binding entry in experiment [1] and in experiment [2] was “binds” in each case.

B2: [35S]-methionine-labeled AtCBP20 (protein, UniProt Q9XFD1 1-257)
chain: MASLFKEQAKLSAYRDRRFSGTQEEFDEALRASTTVYIGNVSFYTTEEQLYELFSRAGEIKKIIMGLDKNTKTPCGFCFVLFYSREDTEDAVKYISGTILDDRPIRVDFDWGFQEGRQWGRGRSGGQVRDEYRTDYDPARGGYGKLVQKELEAQRQLVDYGTGSLGAYPQAAPTNYGNGRRGGGNYGQGGQNRHGRGDYHRKRQRDDDRYGRDNSRRNTDHESRRDTDSDMRPEKNPRFRESGDSDDDGEDDRKRRS
modifications: [35S]-methionine labelled
For B2, the binding result in experiment [3] and in experiment [4] was “binds” in each case.
